This is an account of results in the supplement of paper PMC12578635.

Some of the results follow. Cut-off read from the data, not from the text of the source: active = 150% or more and inactive = the rest. Single values are uncertain, as repeats are few or missing.

For this test, the system named is Staphylococcus aureus JE2-lux inside RAW 264.7 macrophages. Description: intracellular bacterial bioluminescence relative to DMSO vehicle; higher = higher intracellular bacterial metabolic activity. Conditions: 10 µM; treatment time 4 h; gentamicin 50 µg/ml.
As for `COc1ccc(C)cc1NC(=O)CCN1C(=O)c2ccccc2S1(=O)=O`, the intracellular bacterial bioluminescence is inactive: 57.9%.
For `O=C(CSc1c(-c2ccccc2)[nH]c2ccccc12)NCc1ccco1` the value was inactive: 101%; for `Cn1c(=O)c(Nc2ccc(O)cc2)c2c3c(cccc31)C(=O)c1ccccc1-2`, inactive: 61.7%.
For `Cc1ccc(Cc2nn3c(SCC(=O)c4ccc(C)cc4)nnc3[nH]c2=O)cc1` the value was inactive: 92.6%; for `O=C1Nc2ccccc2/C1=C1/SC(=S)N(Nc2ccccc2)C1=O`, inactive: 83.2%; for `CC(=O)Nc1ccc(S(=O)(=O)Nc2cncc(C(=O)NC3CCCC3)c2)cc1`, inactive: 115%.
In the case of `Cc1cccc(NC(=O)C2CCN(C(=O)NCc3ccccc3)CC2)c1C` it was inactive: 66.3%; in that of `CCOC(=O)c1c(-c2ccccc2)csc1NC1SC(=O)N(c2ccccc2)C1=O` (configuration not stated), inactive: 101%.
As to `Cc1ccccc1C(=O)NCCNc1nc2c(c(=O)n(C)c(=O)n2C)n1Cc1ccccc1`, the intracellular bacterial bioluminescence was active: 179%.
For `CCOC(=O)c1c(C)oc2c1/C(=C/NCCO)C(=O)c1ccccc1-2` the value was inactive: 112%.
In the case of `CCc1ccc(N2C(=O)NC3CC2(C)Oc2ccccc23)cc1` (configuration not stated) it was inactive: 20.9%; in that of `Cc1ccc(-c2nc3scc(CCNS(=O)(=O)c4ccc5c(c4)OCCO5)n3n2)cc1`, inactive: 107%.
For `Cc1ccc2nc(-c3ccc(F)cc3)nc(SCC(=O)NCC3CCCO3)c2c1` (configuration not stated) the value was inactive: 88.3%.
Consider `Cn1cc(NC(=O)c2ccc(C(F)(F)F)nc2N2CCN(CCO)CC2)cn1`, for which the intracellular bacterial bioluminescence was inactive: 89.3%.
For `CCOC(=O)c1cc([N+](=O)[O-])sc1NC(=O)CC` the value was inactive: 92.9%.
In the case of `COc1ccc(S(=O)(=O)CCC(=O)Nc2nc3c(s2)COc2ccccc2-3)cc1` it was inactive: 63.8%; in that of `Cc1cc2cc3c(cc2nc1SCC(=O)Nc1ccc2c(c1)OCO2)CCC3`, inactive: 113%; in that of `Cc1ccc2cc3cc(C(=O)OC(C(=O)NCC4CCCO4)c4ccccc4F)sc3nc2c1` (configuration not stated), inactive: 77.2%.
Consider `NC(=O)c1ccsc1NC(=O)c1ccc2c(c1)OCCO2`, for which the intracellular bacterial bioluminescence was inactive: 111%.
As for `CCCCOc1ccc(/C=C(\C#N)c2nc3ccccc3[nH]2)cc1OC`, the intracellular bacterial bioluminescence was inactive: 101%.
In the case of `COC(=O)c1ccccc1NC(=O)c1cnc(C)nc1C` it was inactive: 104%; in that of `O=C(O)c1cccnc1Nc1cccc([N+](=O)[O-])c1`, inactive: 97.2%; in that of `Cc1csc(-c2csc(S(=O)(=O)N3CC=C(c4ccccc4)CC3)c2)n1`, inactive: 95.4%.
For `CCSc1ccccc1C(=O)Nc1sc2c(c1C(N)=O)CCC(C)C2` (configuration not stated) the value was inactive: 93.4%.
In the case of `COC(=O)c1ccc2nc(NC(=O)/C=C/c3cccs3)sc2c1` it was inactive: 116%; in that of `O=C(CSc1nnc2ccc(-c3ccncc3)nn12)NCc1ccc(F)cc1`, active: 151%; in that of `Cn1nc(C(=O)NCc2ccc(F)cc2)c2c1CCN(C(=O)c1cc(-c3cccs3)on1)C2`, inactive: 95.4%.
Consider `O=C(NCC1CCCN1S(=O)(=O)c1cccs1)c1ccc([N+](=O)[O-])cc1` (configuration not stated), for which the intracellular bacterial bioluminescence is inactive: 111%.
Turning to `COc1ccccc1C(=O)Nc1cc(C(=O)N(C)C)cnc1N1CCNCC1`, the intracellular bacterial bioluminescence is inactive: 104%.
For the compound `O=C(NCc1ccc2c(c1)OCO2)c1ccc(-c2ccc(N3CCOCC3)nn2)cc1`, the intracellular bacterial bioluminescence is inactive: 104%.
In the case of `COc1ccc(CNC(=O)CSc2nccnc2N2CCSCC2)cc1` it was inactive: 67.7%.
In the case of `COc1cc(C(=O)Nc2cccc3ccccc23)c(-n2cnnn2)cc1OC` it was inactive: 104%; in that of `COc1ccc(CCNC(=O)Cn2c(-c3cccs3)cc3cccnc32)cc1OC`, inactive: 52.8%.
In the case of `Cc1nc2nc(NC(=O)Cn3nnc4ccccc43)ccc2c(C)c1C` it was inactive: 16.3%.
With `Cc1ccc(/N=C2/NC(=O)/C(=C/c3ccccc3)S2)cc1`, the intracellular bacterial bioluminescence is inactive: 75.7%.
In the case of `C=CCOC(=O)C1=C(C)Nc2c(c(=O)n(C)c(=O)n2C)C1c1cccnc1` (configuration not stated) it was inactive: 90.8%; in that of `O=C(O)CCC(=O)NCCn1c(-c2ccccc2)cs/c1=N/c1ccccc1`, inactive: 121%; in that of `COc1cc2cc(C#N)c(SCC(=O)NC3CCCC3)nc2cc1OC`, inactive: 87.4%.
Consider `Cc1cc(C)nc(NS(=O)(=O)c2ccc(NC(=O)c3ccc(Cl)cc3)cc2)n1`, for which the intracellular bacterial bioluminescence was active: 163%.
In the case of `CCC1Sc2ccc(S(=O)(=O)CCC(=O)NC(C)(C)C)cc2NC1=O` (configuration not stated) it was inactive: 105%.
With `O=C(NCc1ccc2[nH]c3c(c2c1)CCCC3)Nc1ccc(Cl)cc1`, the intracellular bacterial bioluminescence was inactive: 77.9%.
For `NC(=O)c1c(NC(=O)/C=C/c2ccc(Cl)cc2Cl)sc2c1CCCC2` the value was inactive: 95.7%; for `Cc1nc(N2CCCC2)c2c(C)c(C(=O)N3CCOCC3)sc2n1`, inactive: 116%; for `Clc1cccc2nc3n(c12)CCN(C1CCCCC1)C3`, inactive: 101%.
For `CN(Cc1cc(O)nc2ccccc12)S(=O)(=O)c1ccc2c(c1)CCC(=O)N2` the value was inactive: 81.2%; for `COCCNC(=O)Cn1nc2c3c(C)c(C)sc3ncn2c1=O`, inactive: 114%.
In the case of `O=C1Nc2ccc(Br)cc2/C1=N/NC(=O)c1ccccc1NC(=O)c1ccccc1` it was inactive: 68.1%; in that of `Cc1nn2c(-n3cccc3)c(-c3ccc(F)cc3)nc2s1`, inactive: 105%.
Consider `O=C(Nc1cc2c3c(c1)CCC(=O)N3CCC2)c1cccc(C(F)(F)F)c1`, for which the intracellular bacterial bioluminescence was inactive: 113%.
In the case of `CN(C)CCn1c2c(c(SCC(=O)Nc3ccc([N+](=O)[O-])cc3)nc1=O)CCC2` it was inactive: 15.6%.
In the case of `COc1ccc(-c2nc3c(c(=O)[nH]2)Cc2cc(Cl)ccc2O3)c(OC)c1` it was inactive: 93.3%; in that of `CCOCCCNC(=O)c1sc2nc(C)nc(N3CCCC3)c2c1C`, inactive: 111%; in that of `CCn1c(C)cc2cc(NC(=O)c3c(-c4ccncc4)noc3C)ccc21`, inactive: 103%.
For `COc1ccc(CCC(=O)Nc2ccc3c(c2)C(=O)Nc2ccccc2O3)cc1` the value was inactive: 21%; for `O=C(CN1C(=O)c2ccccc2C1=O)OCC(=O)c1ccc(-c2ccccc2)cc1`, inactive: 123%.
In the case of `CC(C)NC(=O)CN1CCN(c2ncc(NC(=O)c3ccc(F)cc3)cc2C(=O)O)CC1`, the intracellular bacterial bioluminescence is inactive: 87.4%.
In the case of `COc1ccc(NC(=O)CSc2nc3ccccc3c(=O)[nH]2)c(OC)c1` it was inactive: 96.8%; in that of `CCOC(=O)c1sc(NC(=O)CSc2nc(=O)n3ccc(C)cc3n2)c(C(=O)OCC)c1C`, inactive: 28.8%; in that of `C=CCOc1ccccc1NC(=O)c1cnc(N2CCOCC2)nc1`, inactive: 118%.
In the case of `CC(Cc1ccco1)NC(=O)Cn1cccc1-c1nc(-c2ccccc2)cs1` (configuration not stated) it was inactive: 39.9%; in that of `COc1ccccc1CNC(=O)c1cc2c(=O)n3ccccc3nc2n1C`, inactive: 111%; in that of `CCOC(=O)CSc1nc2c([nH]1)c(=O)n(C)c(=O)n2C`, inactive: 93.8%.
In the case of `COc1ccc(NC(=O)c2ccc(-n3cnc4c(sc5nc(C)cc(C)c54)c3=O)cc2)c(OC)c1` it was inactive: 99.9%.
`Cc1nc2cc(NC(=O)Nc3ccc(Cl)cc3)ccc2n1-c1ccccc1`: the intracellular bacterial bioluminescence is inactive: 102%.
For `COc1cccc(Nc2nc(NC3CCN(Cc4ccccc4)CC3)nc3c2cnn3C)c1` the value was inactive: 81.4%; for `CCC(C)NC(=O)c1c(N)n(/N=C/c2cccc(O)c2)c2nc3ccccc3nc12` (configuration not stated), inactive: 108%.
Take `Nc1c(C(=O)NCc2ccco2)nnn1Cc1cccc(Cl)c1`: the intracellular bacterial bioluminescence was inactive: 51.4%.
In the case of `COc1ccc(C(=O)CSc2nc(=O)[nH]c3c2CCCC3)cc1` it was inactive: 129%; in that of `CCOC(=O)c1nc(N2CCOCC2)c2c(C)c(C)n(-c3ccccc3)c2n1`, inactive: 51%; in that of `CCSc1nnc(NC(=O)CCn2c(=O)oc3ccccc32)s1`, inactive: 47.8%.
In the case of `COc1ccc(-n2nc3c(c2NC(=O)C2(c4ccc(Cl)cc4)CCCC2)CS(=O)C3)cc1` (configuration not stated), the intracellular bacterial bioluminescence is inactive: 93.9%.
Consider `Cc1ccccc1OCCCC(=O)Nc1sc2c(c1C#N)CCC(C)C2` (configuration not stated), for which the intracellular bacterial bioluminescence was inactive: 94.9%.
In the case of `COc1ccc(NC(=O)Cn2cnc3c(cnn3-c3ccc(F)cc3)c2=O)cc1OC` it was inactive: 96.1%.
In the case of `Cc1ccc2c(c1)C(=O)OC(C(=O)Nc1cc(C)on1)C2` (configuration not stated) it was inactive: 61.8%.
For `COc1ccc(C(NC(=O)c2cnc(C(C)(C)C)nc2)c2ccncc2)cc1` (configuration not stated) the value was inactive: 89.2%.
As for `CC1CCc2c(sc3ncn(C4CCN(C(=O)c5ccco5)CC4)c(=O)c23)C1` (configuration not stated), the intracellular bacterial bioluminescence is inactive: 59.2%.
On to `CCC(=O)NCCSc1ncc(-c2ccccc2)[nH]1`, for which the intracellular bacterial bioluminescence is inactive: 99.9%.
For `CCN1C(=O)c2cccc3c(NC(=O)Nc4ccc(Cl)cc4)ccc1c23` the value was inactive: 47.7%; for `COc1cc(/C=N/NC(=O)CCc2c(C)n[nH]c2C)ccc1O`, inactive: 117%.
In the case of `c1c2c(cc3sc(N4CCOCC4)nc13)OCCO2` it was inactive: 102%; in that of `O=C(c1cccc(Nc2nc(-c3ccccc3)c3cc(Cl)ccc3n2)c1)N1CCOCC1`, inactive: 89.6%.
Regarding `O=C(O)c1ccc(CNC2=NS(=O)(=O)c3ccccc32)cc1`, the intracellular bacterial bioluminescence was inactive: 116%.
In the case of `Cc1ccc2cccc(S(=O)(=O)Nc3ccc(C(=O)O)cc3)c2n1` it was inactive: 115%.
For `CN(Cc1ccccc1)C(=O)Cn1cccc1-c1nc(-c2ccc(Cl)cc2)cs1` the value was inactive: 87.2%; for `Cc1cc2nnc(SCC(=O)NCc3ccco3)n2c2ccccc12`, inactive: 61.8%.
In the case of `COc1ccc(OC)c(-n2c(=S)[nH]c3cc(C(=O)NCc4ccco4)ccc3c2=O)c1`, the intracellular bacterial bioluminescence is inactive: 90.4%.
`CC(=O)Nc1ccc2nc(NC(=O)c3cc(Cl)sc3Cl)sc2c1`: the intracellular bacterial bioluminescence was inactive: 98.7%.
In the case of `Cn1c(=O)c2sccc2n2c(CCCC(=O)NCCc3c[nH]c4ccccc34)nnc12` it was inactive: 118%; in that of `NC(=O)c1sc(=S)n(-c2ccccc2)c1N`, inactive: 87.2%.
For `COc1ccc(NC(=O)CSc2nnc(-c3cccnc3)o2)c(OC)c1` the value was inactive: 87.9%.
As to `Cn1c2ccc(Br)cc2c2nnc(SCc3nc4ccccc4[nH]3)nc21`, the intracellular bacterial bioluminescence was inactive: 73.6%.
For `c1cnc(N2CCN(c3nn4nnnc4c4ccccc34)CC2)nc1` the value was inactive: 77.8%.
